{
  "sequences": {"note": "By UniProt entry, the sequences of proteins in these tests, tags left out. Residues count along the entry.", "UniProt P02768, 25-609": "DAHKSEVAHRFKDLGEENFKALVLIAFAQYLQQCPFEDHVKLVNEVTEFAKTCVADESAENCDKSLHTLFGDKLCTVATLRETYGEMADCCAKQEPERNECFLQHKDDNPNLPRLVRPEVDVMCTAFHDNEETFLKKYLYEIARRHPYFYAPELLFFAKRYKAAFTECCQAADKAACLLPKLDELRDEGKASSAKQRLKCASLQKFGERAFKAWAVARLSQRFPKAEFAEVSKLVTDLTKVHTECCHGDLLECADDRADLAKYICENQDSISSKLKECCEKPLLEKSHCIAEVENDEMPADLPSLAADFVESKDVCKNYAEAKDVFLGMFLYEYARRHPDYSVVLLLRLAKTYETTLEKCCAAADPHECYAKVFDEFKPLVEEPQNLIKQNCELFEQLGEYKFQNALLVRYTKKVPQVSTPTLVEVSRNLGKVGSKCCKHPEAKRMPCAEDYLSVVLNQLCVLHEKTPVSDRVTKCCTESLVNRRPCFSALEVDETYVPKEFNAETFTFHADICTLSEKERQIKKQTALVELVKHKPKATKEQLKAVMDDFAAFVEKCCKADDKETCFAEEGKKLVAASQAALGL"},
  "source": "patent US9492376B2",
  "about": "“Polymer-conjugated albumin hydrogels for controlled release of therapeutic agents” (TECHNION RESEARCH AND DEVELOPMENT FOUNDATION LTD., priority 2008, dated 2016)",
  "origin": "cited, not measured here",
  "target": "serum albumin (Homo sapiens, UniProt P02768)",
  "conditions": "literature; cited from earlier work",
  "data": [
    {"compound": "COc1ccc2cc([C@H](C)C(=O)O)ccc2c1", "note": "[Naproxen]", "values": [
      {"measurement": "Ka, binding to serum albumin", "value": "1.6-3.7×10^6 M^−1"}
    ]}
  ]
}
